Experimental data taken from paper PMC9127447.
Where a chain is given by its changes, count along the chain named. Numbers in names are those of the source. No constants are given. Whether binding was seen depends on the method and setting. Some binding calls cover weakened binding; strength is not graded here. Sequences can lack the tags named with a protein.

B1: His-tagged rat dynamin 2-WT (enzyme, UniProt P39052 1-870)
chain: MGNRGMEELIPLVNKLQDAFSSIGQSCHLDLPQIAVVGGQSAGKSSVLENFVGRDFLPRGSGIVTRRPLILQLIFSKTEYAEFLHCKSKKFTDFDEVRQEIEAETDRVTGTNKGISPVPINLRVYSPHVLNLTLIDLPGITKVPVGDQPPDIEYQIKDMILQFISRESSLILAVTPANMDLANSDALKLAKEVDPQGLRTIGVITKLDLMDEGTDARDVLENKLLPLRRGYIGVVNRSQKDIEGRKDIRAALAAERKFFLSHPAYRHMADRMGTPHLQKTLNQQLTNHIRESLPTLRSKLQSQLLSLEKEVEEYKNFRPDDPTRKTKALLQMVQQFGVDFEKRIEGSGDQVDTLELSGGARINRIFHERFPFELVKMEFDEKDLRREISYAIKNIHGVRTGLFTPDLAFEAIVKKQVVKLKEPCLKCVDLVIQELISTVRQCTSKLSSYPRLREETERIVTTYIREREGRTKDQILLLIDIEQSYINTNHEDFIGFANAQQRSTQLNKKRAIPNQGEILVIRRGWLTINNISLMKGGSKEYWFVLTAESLSWYKDEEEKEKKYMLPLDNLKIRDVEKGFMSNKHVFAIFNTEQRNVYKDLRQIELACDSQEDVDSWKASFLRAGVYPEKDQAENEDGAQENTFSMDPQLERQVETIRNLVDSYVAIINKSIRDLMPKTIMHLMINNTKAFIHHELLAYLYSSADQSSLMEESAEQAQRRDDMLRMYHALKEALNIIGDISTSTVSTPVPPPVDDTWLQNTSSHSPTPQRRPVSSVHPPGRPPAVRGPTPGPPLIPMPVGATSSFSAPPIPSRPGPQNVFANNDPFSAPPQIPSRPARIPPGIPPGVPSRRAPAAPSRPTIIRPAEPSLLD
B2: His-tagged rat dynamin 2-K562E (enzyme, UniProt P39052 1-870)
chain: B1 chain with K562E

Assays:
[1] = target: His-tagged rat dynamin 2-WT (rat) (UniProt P39052); assay: negative-stain transmission electron microscopy; 1.5 uM dynamin with 1 uM actin filaments in F-buffer with 50 mM KCl (low ionic strength), 4 C, 16 h; both purified
[2] = target: His-tagged rat dynamin 2-WT (rat) (UniProt P39052); assay: negative-stain transmission electron microscopy; dynamin 2 alone, without liposomes, under GDP-Pi conditions; ring-shaped polymers; both purified
[3] = target: His-tagged rat dynamin 2-WT (rat) (UniProt P39052); assay: atomic force microscopy; mixture of dynamin 2 and actin filaments in F-buffer with 50 mM KCl, spun onto a glass stage (6,000 x g, 20 min), fixed with 0.01% glutaraldehyde, imaged in F-buffer at room temperature; both purified
[4] = target: His-tagged rat dynamin 2-K562E (rat) (UniProt P39052); assay: negative-stain transmission electron microscopy; 1.5 uM dynamin with 1 uM actin filaments in F-buffer with 50 mM KCl (low ionic strength), 4 C, 16 h; both purified
[5] = target: His-tagged rat dynamin 2-K562E (rat) (UniProt P39052); assay: negative-stain transmission electron microscopy; dynamin 2 alone, without liposomes, under GDP-Pi conditions; ring-shaped polymers; both purified

Binder	binding [1]	binding [2]	binding [3]	binding [4]	binding [5]
B1	binds	binds	binds	–	–
B2	–	–	–	binds	binds
